Measured values taken from PMC3053396.
No constants are given. Whether binding was seen depends on the method and setting. For part of these data: Binding calls can cover weak binding; strength is not graded here. For part of these data: Sequences can lack the tags named with a protein.

Legend:
[1] = target: Dmknδ5 (dermokine delta 5) in pGBKT7, two-hybrid bait (human); test: two-hybrid; Matchmaker Gal4 system, yeast AH109; Dmknδ5 constructs in pGBKT7 as bait, Rab5 in pGAD10 or pGADT7; growth on medium lacking Trp, Leu, His and Ade, β-galactosidase filter assay
[2] = target: Dmknδ5-Ct in pGBKT7, two-hybrid fusion (human); test: as above
[3] = target: Dmknδ5-Nt in pGBKT7, two-hybrid fusion (human); test: as above
[4] = target: GST-Dmknδ5 fusion protein (human); test: pull-down; GST-Dmknδ5 on glutathione sepharose beads; cleaved Rab5bwt preloaded with 500 µM GDP (inactive conformation); both purified
[5] = target: GST-Dmknδ5 fusion protein (human); test: pull-down; GST-Dmknδ5 on glutathione sepharose beads; cleaved Rab5bwt preloaded with 500 µM GppNHp (active conformation); both purified
[6] = target: GST-Dmknδ5 fusion protein (human); test: pull-down; GST-Dmknδ5 (30 µg) on glutathione sepharose beads, 10 µg recombinant Rab5b, 1 hour at 4°C; eluted with glutathione, immunoblot with anti-Rab5; both purified

Row | Binder | binding [1] | binding [2] | binding [3] | binding [4] | binding [5] | binding [6]
1 | Rab5b, library clone in pGAD10 (protein, UniProt P61020 1-215) MTSRSTARPNGQPQASKICQFKLVLLGESAVGKSSLVLRFVKGQFHEYQESTIGAAFLTQSVCLDDTTVKFEIWDTAGQERYHSLAPMYYRGAQAAIVVYDITNQETFARAKTWVKELQRQASPSIVIALAGNKADLANKRMVEYEEAQAYADDNSLLFMETSAKTAMNVNDLFLAIAKKLPKSEPQNLGGAAGRSRGVDLHEQSQQNKSQCCSN | binds | no binding | binds |  |  | 
2 | purified recombinant wild-type Rab5b, GST removed (protein, UniProt P61020 1-215) MTSRSTARPNGQPQASKICQFKLVLLGESAVGKSSLVLRFVKGQFHEYQESTIGAAFLTQSVCLDDTTVKFEIWDTAGQERYHSLAPMYYRGAQAAIVVYDITNQETFARAKTWVKELQRQASPSIVIALAGNKADLANKRMVEYEEAQAYADDNSLLFMETSAKTAMNVNDLFLAIAKKLPKSEPQNLGGAAGRSRGVDLHEQSQQNKSQCCSN |  |  |  | binds | binds | binds
